Test results taken from the odorant receptor screen of Mainland et al. (2015).
Values joined by “and” are separate entries in the source; they are usually repeats but may differ in a detail not shown here. Identical values can stand only once. The list shows a part of the results. Each value is one well over the wells without odorant, computed here; the data are noisy.

What was measured:
Assay in all cases: odorant receptor activation (CRE luciferase / Renilla) (fold of no-odor wells); higher = more activation
Settings in all cases: 100 µM
[1] = test system: OR7C2 clone 1292
[2] = test system: OR7D2 clone 1405
[3] = test system: OR7D4 clone 1298
[4] = test system: OR7E24 P242S clone 1314
[5] = test system: OR7G1 clone 1295
[6] = test system: OR7G2 V263A/F281V clone 1312
[7] = test system: OR7G2 clone 1475
[8] = test system: OR7G3 clone 1297
[9] = test system: OR8A1 clone 1503
[10] = test system: OR8B12 clone 1731

Row | Compound | odorant receptor activation [1] | odorant receptor activation [2] | odorant receptor activation [3] | odorant receptor activation [4] | odorant receptor activation [5] | odorant receptor activation [6] | odorant receptor activation [7] | odorant receptor activation [8] | odorant receptor activation [9] | odorant receptor activation [10]
1 | CC12CCC(CC1)C(C)(C)O2 [cineole] | 0.905 | 0.272 | 0.931 | 0.662 | 0.899 | 0.934 | 1.06 | 0.863 | 1.06 | 0.879
2 | C=CCSCC=C [diallyl sulfide] | 0.931 | 0.98 | 0.879 | 0.905 | 0.936 | 0.957 | 0.891 | 1.02 | 1.4 | 0.83
3 | CC12C=CCC1C1CCC3CC(=O)CCC3(C)C1CC2 (stereo not drawn) [androstenone] | 1.32 | 0.401 | 3.99 | 1.36 | 1.37 | 1.73 | 0.986 | 1.02 | 1.09 | –
4 | CCCC(=O)O [butyric acid] | 0.636 | 0.304 | 0.771 | 0.699 | 0.968 | 0.973 | 1.38 | 0.772 | 1.2 | 0.993
5 | C=CCc1ccc(OC)c(OC)c1 [eugenol methyl ether] | 1.29 | 1.5 | 1.57 | 1.34 | 1.6 | 1.42 | 1.05 | 1.5 | 2.23 | 0.798
6 | CC(=O)OC1CC2CCC1(C)C2(C)C (stereo not drawn) [isobornyl acetate] | 1.19 | 0.825 | 1.04 and 1.12 | 0.929 and 0.907 | 0.821 and 0.998 | 1.07 and 0.781 | 1.23 and 1.25 | 0.751 and 0.669 | 0.944 and 1.6 | 1.01
7 | CCCCCCCOC(C)=O [heptyl acetate] | 0.869 and 0.822 | 0.985 | 0.859 and 1.29 | 0.906 and 0.86 | 0.998 and 1.11 | 1.07 and 0.748 | 0.917 and 1.33 | 0.641 and 0.924 | 0.772 and 1.21 | 0.774
8 | COC(=O)c1ccccc1 [methyl benzoate] | 0.874 | 0.98 | 0.832 | 0.888 | 0.833 | 0.56 | 1.01 and 0.717 | 1.32 | 0.829 and 1.07 | –
9 | CC12C=CCC1C1CCC3=CC(=O)CCC3(C)C1CC2 (stereo not drawn) [androstadienone] | 0.885 and 1.07 | 0.882 | 1.04 and 2.09 | 0.808 and 0.936 | 1.05 and 1.12 | 1.36 and 0.699 | 0.806 and 1.29 | 0.833 and 0.853 | 0.801 and 1.12 | –
10 | O=C1CCCCC1 [Cyclohexanone] | 0.764 | 1.01 | 0.841 | 0.668 | 0.584 | 0.351 | 1.16 and 0.649 | 0.56 | 1 and 0.931 | –
11 | CC1=NC(C)SC1C (stereo not drawn) | 1.19 | 1.11 | 1.18 | 1.04 | 1.73 | 0.976 | 1.25 and 1.16 | 0.651 | 0.908 and 0.95 | –
12 | CC(=O)c1ccccc1 [acetophenone] | 2.01 | 0.988 | 1.85 | 1.39 | 1.58 | 0.492 | 1.23 and 0.501 | 2.76 | 0.765 and 0.975 | –
13 | CC(=O)C(C)=O [diacetyl] | 0.956 | 1.31 | 0.957 | 1.09 | 0.999 | 1.19 | 0.952 | 1.23 | 1.71 | 0.901
14 | O=C1CCCCCCCCCCCCCCO1 [pentadecalactone] | 0.827 | 1.21 | 0.717 | 0.74 | 0.643 | 0.88 | 0.722 | 0.886 | 0.781 | 0.668
15 | COC(=O)c1ccccc1O [methyl salicylate] | 0.881 | 0.937 | 0.985 | 0.836 | 0.948 | 0.732 | 1.04 | 0.99 | 0.841 | 0.911
16 | CCCCCCCC=O [octyl aldehyde] | 1.1 | 0.683 | 0.948 | 1.16 | 1.02 | 1.19 | 1.05 | 1.08 | 0.917 | 0.827
17 | C=CCc1ccc(OC(C)=O)c(OC)c1 [eugenol acetate] | 1.18 | 1.77 | 1.39 | 1.61 | 1.88 | 1.57 | 1.43 | 1.82 | 2.36 | 1.64
18 | CCCCCCCCCCC=O [undecanal] | 0.919 | 0.955 | 0.887 | 1.01 | 0.946 | 0.903 | 0.915 | 0.867 | 1.13 | 1.03
19 | c1ccc(Oc2ccccc2)cc1 [diphenyl ether] | 1.04 | 0.868 | 1.08 | 0.885 | 1.08 | 0.875 | 0.857 | 1.04 | 1.34 | 0.777
20 | CC(C)C(=O)O [isobutyric acid] | 0.914 and 0.988 | 0.791 | 0.884 and 0.945 | 0.875 and 0.95 | 0.973 and 0.961 | 1.21 and 0.727 | 1.22 and 1.03 | 0.902 and 0.813 | 1.01 and 0.891 | 1.16
21 | CC(=O)OCC=C(C)CCC=C(C)C [geranyl acetate] | 1.05 and 1.39 | 1.28 | 0.87 and 1.38 | 1.33 and 1.11 | 0.942 and 1.08 | 1.68 and 1.03 | 1.18 and 1.49 | 0.928 and 1.01 | 1.02 and 1.26 | 1.12
22 | CCCCCCCCC=O [nonyl aldehyde] | 0.933 | 0.781 | 0.943 | 0.841 | 1.14 | 0.942 | 0.997 | 0.948 | 0.831 | 0.741
23 | CC/C=C\CCO [cis-3-hexen-1-ol] | 0.706 | 0.342 | 0.761 | 0.833 | 0.968 | 0.825 | 1.13 | 0.935 | 0.822 | 0.836
24 | CC1=CCC(C(C)(C)O)CC1 (stereo not drawn) [terpineol] | 0.939 | 1.09 | 0.923 | 1.07 | 1.04 | 0.985 | 0.605 | 0.733 | 0.918 | 0.632
25 | O=CCc1ccccc1 [phenyl acetaldehyde] | 1.04 | 1.57 | 1.03 | 1.02 | 1.11 | 1.44 | 1.14 | 1.12 | 1.12 | 2.6
26 | CC1CCC(C(C)C)C(O)C1 (single isomer, unassigned; (+)) [(+)-menthol] | 0.811 | 1.61 | 0.907 | 0.664 | 0.82 | 1.01 | 1.06 | 0.558 | 1.18 | 0.834
27 | CC(C)(C)c1ccc(CCC=O)cc1 [bourgeonal] | 0.601 | 0.227 | 0.661 | 0.465 | 0.654 | 0.657 | 0.983 | 0.625 | 1.02 | –
